Measured values published in PubChem BioAssay AID2685 (National Center for Advancing Translational Sciences (NCATS), 2010).
This is one part of the list. Further columns of the screen follow, without active or inactive calls. Most of these compounds were active or inconclusive in the main read-out, so they are no random draw. The note in brackets gives the kind of curve behind each potency; many fits are weak.

Test: qHTS Assay for Lipid Storage Modulators in Drosophila S3 Cells;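 for cell number change: cells counted by Cell Tracker Red CMTPX staining in the red channel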
Settings: BODIPY lipid droplet fluorescence, 18-24 h; for cell number change: measured here: cell count max response, cells fed with added oleic acid
Procedure, shortened: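 Laser-scanning cytometry quantifies lipid droplet accumulation (500–530 nm total intensity; droplet/cell object ratio) in oleic acid-fed (400 uM added) Drosophila S3 cells treated with a concentration series. 20 uM Triacsin C defined 100% inhibition.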

[1] = measured here: cell number channel AC50, cells fed with added oleic acid
[2] = measured here: lipid fluorescence (Fed channel) AC50, cells fed with added oleic acid

SMILES: Cc1ccc(-n2ncc3c(=O)n(-c4ccc(C)c(C)c4)c(-c4ccco4)nc32)cc1
- cell number change: 34.8%
- AC50 [1]: 23.1 µM [rising, single point]

SMILES: O=C(O)c1c(-c2ccccc2)c2oc3ccccc3c2[nH]c1=O
- cell number change: -2.85%
- AC50 [2]: 0.651 µM [falling, full curve]

SMILES: COc1ccc(C[C@H](C(=O)O)N2C(=O)c3ccc(C(=O)O)cc3C2=O)cc1
- AC50 [2]: 18.4 µM [rising, partial curve, poor fit]

SMILES: COc1ccc(N2CCN(C(=O)CCC(=O)c3cc(C)sc3C)CC2)cc1
- cell number change: 10.9%
- AC50 [2]: 18.4 µM [rising, single point]

SMILES: CC(=O)Nc1ccc(S(=O)(=O)NCC2CCC(C(=O)NCCc3ccccc3)CC2)cc1 (configuration not stated)
- AC50 [2]: 11.6 µM [falling, partial curve, poor fit]

SMILES: Oc1c(Br)cc(Br)cc1CNc1nccs1
- cell number change: 16.2%

SMILES: O=C(NC1CCCc2c1cnn2-c1ccc(F)cc1F)c1csnn1 (configuration not stated)
- AC50 [1]: 0.411 µM [falling, full curve]
- AC50 [2]: 0.231 µM [falling, full curve]

SMILES: CCN(CC)CCNC(=O)C12CC3CC(C)(CC(C)(C3)C1)C2
- cell number change: -17.2%
- AC50 [2]: 29.1 µM [falling, single point]

SMILES: O=C(Nc1nncs1)c1c(F)c(F)c(F)c(F)c1F
- cell number change: -32.7%
- AC50 [1]: 10.3 µM [falling, partial curve]
- AC50 [2]: 0.82 µM [rising, full curve, poor fit]

SMILES: O=c1oc(CCCO)cc2ccc(C#CC3(O)CCCCC3)cc12
- cell number change: 6.08%
- AC50 [1]: 1.16 µM [falling, single point]
- AC50 [2]: 0.00517 µM [rising, full curve, poor fit]

SMILES: O=C(O)c1cc2cc(Cl)cc(Cl)c2oc1=O
- cell number change: -37.1%
- AC50 [1]: 11.6 µM [falling, single point]
- AC50 [2]: 29.1 µM [falling, partial curve]

SMILES: CCCCCCNC(=O)Cc1ccc(Br)cc1
- cell number change: 9.17%

SMILES: O=C(OCC(=O)C12CC3CC(CC(C3)C1)C2)c1cnccn1
- cell number change: -23.2%
- AC50 [2]: 29.1 µM [falling, single point]

SMILES: CC(CC(=O)Nc1ccc(F)cc1)S(=O)(=O)c1ccc2c(c1)NC(=O)CO2 (configuration not stated)
- cell number change: 14%
- AC50 [2]: 29.1 µM [rising, single point]

SMILES: O=P(c1cccs1)(c1cccs1)c1cccs1
- cell number change: -4.31%
- AC50 [2]: 1.64 µM [falling, partial curve, poor fit]

SMILES: O=C(CNC(=O)c1cccnc1)N/N=C/c1cc(Br)c(O)c(Br)c1
- cell number change: -4.23%

SMILES: COc1ccc(OCCCC(=O)Nc2cc(Cl)ccc2-n2cncn2)cc1
- cell number change: -96.8%
- AC50 [1]: 23.1 µM [falling, single point]

SMILES: Cc1cc(C)c(C#N)c(N)n1
- AC50 [1]: 0.00461 µM [falling, full curve, poor fit]

SMILES: COc1ccc(C(C(=O)NC2CCCCC2)N(Cc2cccs2)C(=O)Cc2c[nH]c3ccccc23)cc1 (configuration not stated)
- cell number change: -27.5%
- AC50 [2]: 1.3 µM [falling, full curve, poor fit]

SMILES: O=C(CSc1nccc(=O)[nH]1)N1CCCc2ccccc21
- cell number change: -32.9%
- AC50 [2]: 32.6 µM [falling, partial curve, poor fit]

SMILES: N/C(=N\OC(=O)COc1ccc(Br)cc1)c1cccc([N+](=O)[O-])c1
- AC50 [1]: 4.11 µM [rising, partial curve]

SMILES: Cc1ccc(C2=Nc3ccc(Br)cc3C(c3ccncc3)=NN2)cc1
- cell number change: -44.7%
- AC50 [1]: 29.1 µM [falling, single point]
- AC50 [2]: 20.6 µM [falling, partial curve]

SMILES: Cc1cc(C(=O)CN2C(=O)NC(C)(c3cccc(Br)c3)C2=O)c(C)n1Cc1ccco1 (configuration not stated)
- cell number change: -12%
- AC50 [2]: 0.13 µM [falling, full curve, poor fit]

SMILES: CCCC(C(=O)NC1CCCC1)N(C(=O)Cn1nnc(-c2ccc(C)o2)n1)c1ccccc1OC (configuration not stated)
- cell number change: -3.4%

SMILES: CCOC(=O)C1CCCN(CC(O)COCc2ccccc2OC)C1 (configuration not stated)
- cell number change: -5.26%

SMILES: Cc1cc(-c2n[nH]c(=S)n2/N=C/C(Br)=C/c2ccccc2)n[nH]1
- cell number change: -85.8%
- AC50 [1]: 13 µM [falling, partial curve]
- AC50 [2]: 5.17 µM [falling, full curve]

SMILES: Cc1c(N=N/C(C(=O)Nc2ccccc2)=C(/O)c2ccccc2)c(=O)n(-c2ccccc2)n1C
- cell number change: 7.51%
- AC50 [2]: 0.731 µM [falling, single point]

SMILES: CC(=O)N(C(C)=O)N1C(=O)/C(=C/c2ccc(Cl)cc2)SC1=S
- cell number change: -53.2%
- AC50 [1]: 29.1 µM [falling, single point]
- AC50 [2]: 23.1 µM [falling, partial curve, poor fit]

SMILES: c1ccc(-c2nc(-c3ccco3)n3ccccc23)cc1
- cell number change: 21%
- AC50 [2]: 0.517 µM [falling, full curve, poor fit]

SMILES: Cc1ccc(NC(=O)CSC(C)C(=O)NCCc2ccccn2)cc1 (configuration not stated)
- cell number change: 23.1%
- AC50 [1]: 0.00517 µM [rising, full curve, poor fit]

SMILES: CCOC(=O)CNC(=O)c1cc(C)oc1C
- AC50 [2]: 0.82 µM [rising, single point]

SMILES: CCCC(=O)c1cc2cc(Cl)ccc2oc1=O
- cell number change: -3.87%
- AC50 [2]: 2.31 µM [falling, full curve]

SMILES: Cc1ccc(NC(=O)[C@H](NC(=O)[C@@H]2Cc3ccccc3CN2)c2ccccc2)cc1C
- AC50 [2]: 23.1 µM [rising, single point]

SMILES: CN(C)c1ccc(C(C(=O)NC2CCCCC2)N(Cc2ccco2)C(=O)c2snc(C(N)=O)c2N)cc1 (configuration not stated)
- cell number change: 4.58%
- AC50 [2]: 1.16 µM [falling, single point]

SMILES: O=C1Nc2ccc(S(=O)(=O)NCCCO)c3cccc1c23
- cell number change: 42.5%
- AC50 [1]: 0.731 µM [rising, full curve]
- AC50 [2]: 5.8 µM [rising, single point]

SMILES: CCCCCCC(=O)Nc1ccc(C(=O)N2CCCC2)cc1
- cell number change: 22.2%
- AC50 [1]: 0.0326 µM [falling, full curve, poor fit]

SMILES: c1ccc2nc(-c3nc4ccccc4[nH]3)ccc2c1
- AC50 [1]: 1.3 µM [rising, full curve]
- AC50 [2]: 1.46 µM [rising, full curve]

SMILES: N#CCCN(Cc1cccnc1)S(=O)(=O)c1ccc(S(=O)(=O)NC2CCCCC2)cc1
- cell number change: -34.4%
- AC50 [1]: 0.291 µM [falling, full curve]
